Measured values as given in publication PMC4768134.
Results are given in words; binding and its absence hold for the method and conditions named. Binding seen in cells or lysates may run through a third protein. Some results given as binding are weak or reduced against the parent protein; the word gives no strength.

Assays:
[1] = target: Ankyrin-rich BTB/POZ domain containing protein-2 (mouse (endogenous in nigra)) (UniProt Q7TQI7); assay: co-IP; endogenous proteins in nigral extracts of Non-Tg and A53T-Tg mice (n = 3/group); IP of BPOZ-2 then IB of PINK1, and IP of PINK1 then IB of BPOZ-2; IgG IP as negative control
[2] = target: PINK1 (mouse (endogenous in nigra)) (UniProt Q99MQ3); assay: as above

| Substance | binding [1] | binding [2] |
| --- | --- | --- |
| PINK1 (from UniProt Q99MQ3 78-580) | binds | – |
| Ankyrin-rich BTB/POZ domain containing protein-2 (from UniProt Q7TQI7 1-1024) | – | binds |
